# The list shows a part of the results. These are raw signals, not scaled to a control.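 First-pass screen: polymyxin B was added at a level that permeabilizes the Salmonella outer membrane while sparing the inner membrane. DMSO wells, with and without polymyxin B, defined maximum growth. Because plates differed from one another, each plate's data were ranked separately and the compounds with the lowest OD600 were carried forward as hits.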
# Test system: Salmonella enterica serovar Typhimurium SL1344
# Experiment: bacterial growth OD600 after 18 h with compound and polymyxin B; higher = more bacterial growth (less inhibition)
# Settings: 50 µM, Mueller-Hinton broth
SMILES,bacterial growth OD600 (polymyxin B 0.75 µg/mL),bacterial growth OD600 (polymyxin B 1 µg/mL)
CO[C@H]1[C@H](NC(=O)c2ccncc2)c2ccccc2C12CCN(C(=O)CCn1nc(C)cc1C)CC2,0.836,
CCc1ccc(CN2CCN(Cc3cc(OC)cc(OC)c3)C(CCO)C2)cc1 (stereo unspecified),,1.05
CCOC(=O)C1(CCCc2ccccc2)CCN(C(=O)CCN2CCCCO2)CC1,,1.02
CCOC(=O)C1(CCc2ccccc2)CCN(C(=O)CCc2ccncc2)CC1,,0.705
O=C(CC(c1cccc(O)c1)c1cccc(Cl)c1)NC1CC1 (stereo unspecified),,1.17
CCOC(=O)N1CCN(C2CCCN(Cc3cccn3-c3nccs3)C2)CC1 (stereo unspecified),,1.01
COc1ccccc1C(=O)Nc1cccc(N2CCC(NC(C)c3cnn(-c4ccccc4)c3)CC2)c1 (stereo unspecified),0.838,
Cc1ncoc1C(=O)NC1CC(C)(C)Cc2c1cnn2-c1ccc(F)cc1 (stereo unspecified),,0.976
O=C1NCCN1c1ccc(CN2CCCC(CO)(Cc3ccc(F)cc3)C2)cc1 (stereo unspecified),0.849,
CCc1nnc(SCC(=O)N2CCCC(C(=O)c3ccc4c5c(cccc35)CC4)C2)o1 (stereo unspecified),,0.021
COc1ccccc1C(=O)Nc1cccc(N2CCC(NCc3ccc(Cl)s3)CC2)c1,0.708,
O=C(c1ccccc1OC1CCN(Cc2ccccc2Cl)CC1)N1CCCCC1,,1.06
C=CCS(=O)(=O)N1C[C@H]2OC(=O)N(CCc3ccc(F)cc3)[C@H]2C1,0.764,
O=C(c1scc2c1OCCO2)N1CCc2onc(-c3cccc(F)c3)c2C1,0.447,
Cc1cccc(-n2cc(CNCC3COCCO3)c(-c3cccc(F)c3)n2)c1 (stereo unspecified),,0.865
O=C1O[C@@H]2CN(Cc3ccccc3)C[C@@H]2N1C1CCCC1,0.736,

# Two records drawn at random from the list so far:
SMILES,bacterial growth OD600 (polymyxin B 0.75 µg/mL),bacterial growth OD600 (polymyxin B 1 µg/mL)
O=C1O[C@@H]2CN(Cc3ccccc3)C[C@@H]2N1C1CCCC1,0.736,
CCOC(=O)C1(CCc2ccccc2)CCN(C(=O)CCc2ccncc2)CC1,,0.705

# (cont.)

SMILES,bacterial growth OD600 (polymyxin B 0.75 µg/mL),bacterial growth OD600 (polymyxin B 1 µg/mL)
CN(CCc1nc2ccccc2[nH]1)C(=O)c1cc(COc2cccc(F)c2)[nH]n1,,1.02
CN(C)C(=O)CCC(=O)N1CCCC(C(=O)c2ccc3c4c(cccc24)CC3)C1 (stereo unspecified),0.498,
C#Cc1cccc(C(=O)N2CCOC(CCc3ccccc3)C2)c1 (stereo unspecified),0.002,
CCCCN(Cc1ccccc1)C(=O)CCC1(Cc2ccc(SC)cc2)CCC(=O)N1 (stereo unspecified),0.019,
CCN(CC)C(=O)C1CCCN(C2CCN(C(=O)C3CC3)CC2)C1 (stereo unspecified),0.956,
Cc1nn(C)cc1CN(C)C(=O)CC1(c2ccccc2)CC(=O)N(Cc2cccs2)C1=O (stereo unspecified),0.852,
COc1ccc(CNC(=O)CCC2CCCN(Cc3cccc(F)c3F)C2)c(OC)c1 (stereo unspecified),,0.824
CC(C)(C)C(=O)Nc1ccnn1C1CCN(Cc2ccccc2OCCO)CC1,0.809,
Cc1ncc2c(c1CNS(=O)(=O)c1cccs1)CCN(C(=O)c1cccc3c(C)c(C)[nH]c13)C2,0.765,
CN(CCC1CCOCC1)C(=O)c1csc2nc(-c3cccc(F)c3)cn12,0.767,
CCn1cc(C(=O)NCc2cccnc2N(C)Cc2ccccc2)cn1,,0.804
Cn1cc(CN2CCc3[nH]nc(C(c4ccccc4)c4ccccc4)c3C2)cn1,0.7,
CCC1CN(CCNC(=O)c2ccc(C)cc2)Cc2cc(OC)ccc2O1 (stereo unspecified),0.896,
CC#CCN1C(=O)NC(CCc2ccccc2)(C2CCN(C/C=C/c3ccccc3)CC2)C1=O (stereo unspecified),0.739,
CSc1ccc(C(=O)NCC2CC(Cc3ccc(F)cc3)=NO2)cc1 (stereo unspecified),0.707,

# — the supplement of paper PMC12889115
